Residues, ends and D or L forms follow the SMILES beside them.
Test system: MPO
Test: HPLC analysis of MPO-mediated oxidation products
Assay type: biochemical
Settings: MPO/H2O2, also with NO2- or Cl-; HPLC 280 nm and fluorescence

Question: For `CC(=O)N[C@@H](CCCCN)C(=O)N[C@@H](Cc1ccc(O)cc1)C(=O)N[C@@H](CS)C(N)=O` [KYC, N-acetyl Lysyltyrosylcysteine amide] (Ac-Lys-Tyr-Cys-NH2), which “major product of MPO/H2O2-mediated oxidation” value (“major product” below) is on record?
Answer: The value was “KYC disulfide”.

Question: With “N-acetyl Lysylphenylalanylcysteine amid [KFC]” as the molecule, how does the “major product” value read?
Answer: Its value is “did not yield MPO-dependent oxidation products”.

Question: How did the “major product” value turn out when “N-acetyl Lysyltyrosylcyeteine amide [KYS]” was run?
Answer: Its value is “DiTyr”.
